Data taken from article PMC11369169.
No constants are given. Whether binding was seen depends on the method and setting. Binding seen in cells or lysates may run through a third protein. Some results given as binding are weak or reduced against the parent protein; the word gives no strength.

Chains of the proteins cited; added tags and fusions are not shown.
UniProt Q86TM6: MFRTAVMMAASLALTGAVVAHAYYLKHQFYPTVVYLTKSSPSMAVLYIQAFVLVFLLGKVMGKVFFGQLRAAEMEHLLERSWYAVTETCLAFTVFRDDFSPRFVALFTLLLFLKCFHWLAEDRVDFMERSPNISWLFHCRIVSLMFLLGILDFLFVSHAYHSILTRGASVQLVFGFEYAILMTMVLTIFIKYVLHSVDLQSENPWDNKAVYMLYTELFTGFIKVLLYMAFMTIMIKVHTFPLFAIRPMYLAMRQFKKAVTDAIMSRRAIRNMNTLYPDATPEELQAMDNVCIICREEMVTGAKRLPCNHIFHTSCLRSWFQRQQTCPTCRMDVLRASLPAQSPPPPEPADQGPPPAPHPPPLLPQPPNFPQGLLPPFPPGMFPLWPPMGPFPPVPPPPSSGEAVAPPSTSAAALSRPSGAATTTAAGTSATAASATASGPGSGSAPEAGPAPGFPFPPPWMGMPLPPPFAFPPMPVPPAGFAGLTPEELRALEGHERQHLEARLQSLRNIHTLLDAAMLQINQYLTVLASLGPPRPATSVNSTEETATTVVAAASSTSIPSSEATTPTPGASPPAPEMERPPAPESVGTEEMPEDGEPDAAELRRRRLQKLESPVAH

Target: T1, D-3-phosphoglycerate dehydrogenase (PHGDH) (human (endogenous in T24)) (UniProt O43175)
T1 sequence: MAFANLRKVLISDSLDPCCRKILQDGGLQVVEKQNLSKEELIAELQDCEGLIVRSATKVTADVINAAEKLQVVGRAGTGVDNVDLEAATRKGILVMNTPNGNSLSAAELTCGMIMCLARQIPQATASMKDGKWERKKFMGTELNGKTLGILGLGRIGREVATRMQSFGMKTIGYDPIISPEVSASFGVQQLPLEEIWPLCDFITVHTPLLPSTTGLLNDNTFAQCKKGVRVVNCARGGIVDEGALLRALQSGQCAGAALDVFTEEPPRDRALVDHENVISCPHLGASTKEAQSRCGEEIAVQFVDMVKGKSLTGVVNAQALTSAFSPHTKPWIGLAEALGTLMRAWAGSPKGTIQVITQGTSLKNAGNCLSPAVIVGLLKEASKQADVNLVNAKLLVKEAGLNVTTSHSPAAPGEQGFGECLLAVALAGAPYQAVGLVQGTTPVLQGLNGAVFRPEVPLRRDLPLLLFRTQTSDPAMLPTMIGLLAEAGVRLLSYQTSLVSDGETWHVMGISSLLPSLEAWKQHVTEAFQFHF
Experiment: co-IP; whole-cell lysates of T24 / BC cells (IP lysis buffer), pre-cleared; antibody to PHGDH or SYVN1 (IgG control) overnight at 4 °C, Protein A/G magnetic beads, Western blot; also after circSIRT5 overexpression (interaction enhanced)

For “E3 ubiquitin ligase SYVN1 (from UniProt Q86TM6 1-617) (enzyme)”, the binding was “binds”.
